From article PMC3093627 (Research in Pharmaceutical Sciences, 2010)

System: MDCK II cells
Settings: after incubation for 100 min

CN1CC[C@]23c4c5ccc(O)c4O[C@H]2[C@@H](O)C=C[C@H]3[C@H]1C5 [Morphine]
Amount of transepithelial movement in the direction of apical to basal: 6%
